Results reported in patent US11180509B2, “Thiazolidone spiro pyrimidine trione compound, preparation method therefor and uses thereof” (SHANGHAI INSTITUTE OF MATERIA MEDICA, CHINESE ACADEMY OF …, priority 2017, dated 2021).
For at least one compound, name, drawing or mass did not settle the structure.

Tests used:
Test in all cases: In vitro antibacterial activity, MIC by micro broth dilution
Type in all cases: cell-based
Parameters in all cases: unit not given beside the values
Conditions in all cases: 5 clinical strains, range over strains
[1] = tested on: methicillin-resistant Staphylococcus aureus or MRSA
Source text: (§1) The following strains isolated in clinic were used in antibacterial activity screening in vitro: five strains of methicillin-resistant Staphylococcus aureus or MRSA, five strains of methicillin-sensitive Staphylococcus aureus or MSSA, five strains of methicillin-resistant Staphylococcus epidermidis or MRSE, five strains of methicillin-sensitive Staphylococcus epidermidis or MSSE, three strains of penicillin-resistant Streptococcus pneumoniae or PRSP, and three strains of Streptococcus pyogenes.
(§2) The above strains were clinically isolated pathogenic bacteria collected in Sichuan and Beijing in December 2015. They were identified by the collection unit via a VITEK-60 automatic microbiological identification instrument, and then re-identified by conventional methods in the laboratory. Before the experiment, each strain was purified by a single colony on an agar plate, and the cells freshly cultured at 37° C. overnight were appropriately diluted for the experiment. Quality control strain was Staphylococcus aureus ATCC25923 purchased from the Clinical Testing Center of the Ministry of Health of the People's Republic of China.
(§3) Medium: MH (Mueller-Hinton, hydrolyzed casein) broth (OXOID);
(§4) Culture condition: Incubate at 35-37° C. for 16-18 h.
(§5) The MIC value of each test sample for the tested strain was determined by micro broth dilution method recommended by Performance Standards for Antimicrobial Susceptibility Testing (Twenty-Third Informational Supplement; M02-A11, M07-A9 and M11-A8, 2013) of American Clinical and Laboratory Standards Institute (CLSI).
(§6) After diluting each test sample to different concentrations in MH broth, 100 μl of each sample solution at different concentrations was pipetted into a sterilized 96-well polystyrene plate. […]
(§7) The test bacterial solution was adjusted with physiological saline to a bacterial suspension equivalent to 0.5 Maisson turbidity standard, and diluted 1:100 with MH broth. […] The plate was sealed and placed in a 35-37° C. incubator for 18-20 h, and then the results were determined. […]

[2] = tested on: methicillin-resistant Staphylococcus epidermidis or MRSE
Source text: as §1, §2, §3, §4, §5, §6, §7

[3] = tested on: methicillin-sensitive Staphylococcus aureus or MSSA
Source text: as §1, §2, §3, §4, §5, §6, §7

C[C@H]1COc2c(N3CCN(C)CC3)c(F)cc3c(=O)c(C(=O)O)cn1c23 [levofloxacin, reference compound]
MIC MRSA [1]: 16->64
MIC MRSE [2]: 4->64
MIC MSSA [3]: 4->64
